Test results from the supplement of paper PMC5949888.
Most values lie at the floor of the assay. Slopes are relative: functional sequences can read slightly below zero.

test system: Saccharomyces cerevisiae PS128 hsf1 delta, HSF1(1-493) fusion; test: growth estimate (transactivation domain function in HSF1 fusion, heat-shock survival) (a.u. (slope of normalised read count over time)); higher = stronger growth at 37°C, i.e. more transactivation activity; conditions: library: random library
Procedure: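 Random 60-nt DNA library encoding peptides of up to 20 aa, fused to the C-terminus of yeast HSF1 residues 1-493 (C-terminal TAD deleted) and expressed from the native HSF1 promoter on a CEN plasmid in hsf1-deleted S. cerevisiae PS128. Cells were selected at 37°C on -trp 5-FOA plates for 0, 2, 4, 6 and 8 days and amplicons were sequenced. Growth estimate is the slope of a robust linear fit of total-sum-normalised read counts (normalised to the first time point) over time, using at least 2 replicates. Sequences are classed functional (TAD activity) above a threshold of -0.13, set from stop-codon control sequences.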

Substance	growth estimate
EGTDVDLGGRGRRPLRV	< -0.25
EGTTIL	< -0.25
EGTVLPD	< -0.25
EGV	< -0.25
EGVCGLR	< -0.25
EGVPQRISCTHRHRLGKCLP	< -0.25
EGVRNC	-0.231
EGYKILLSAMRISPPIQL	< -0.25
EHGLPRPGHLRAAIRHRLDR	< -0.25
EHGQSRRRTL	< -0.25
EHHEEGFV	< -0.25
EHQR	< -0.25
EHSG	< -0.25
EHTPSSASLVAVLAGFPQAA	< -0.25
EHVGLLCSWIL	< -0.25
EHVRTRCIFISVALACTIIP	< -0.25
EHYVQLNYIYRGKGLGRSAD	< -0.25
EIAEQLT	< -0.25
EIDGLIRDERGMFSIDCVTI	< -0.25
EIG	< -0.25
EIGTRTSRTFR	< -0.25

Substance	growth estimate
EIHSACEVGVGVLQMIRCRP	< -0.25
EIKGLHLFPLCDTHNSMLVR	< -0.25
EILTPLQIIMSQKAAYP	< -0.25
EIMGGGSK	< -0.25
EIPGSEADDWEGQGKSLAGN	< -0.25
EISGYCGKPSGVHHLGEI	< -0.25
EISTMVCFVLTRLFIPRIFP	< -0.25
EITAQMPGLTHNVELDSSGS	< -0.25
EITT	-0.243
EIVKHGKLIARRGCQAQLLI	< -0.25
EKAERV	< -0.25
EKASGTRVLKSRCIATGDLS	< -0.25
EKDGKNE	< -0.25
EKDLIIELASCGHHLF	< -0.25
EKEIPHSVHVANRA	< -0.25
EKETVTERVSSNSLRIMCNT	< -0.25
EKFERTHAL	< -0.25
EKFVVSIAYK	< -0.25
EKGECGMQPGHAMPKE	< -0.25
EKGGSISGRN	< -0.25
EKHVRVHKLEIYRPSKVNRR	< -0.25

Substance	growth estimate
EKLEANAIYDNNALSISLYS	< -0.25
EKSAGSPGTRVLDHSRNARC	< -0.25
EKSCAFVPVTVKRMPCESSD	< -0.25
EKVERT	< -0.25
EKVNALLLHMESSA	< -0.25
EKVNIGCLV	< -0.25
EKVRI	< -0.25
ELACRRR	< -0.25
ELAGRVFRLCAKLSGRYFDA	< -0.25
ELCRRGKLSTDEGLASP	< -0.25
ELDCHVLELGAEALPCMHGS	< -0.25
ELFNIGRVRHSYHVCDAALW	< -0.25
ELGKDT	-0.237
ELGLQLFR	< -0.25
ELGPVGPKTRMESMGNSTRQ	< -0.25
ELGSGRLNILAGEDGSGSDA	< -0.25
ELGYGMLVEELTLVQWPRRV	< -0.25
ELLPTGPPRCTCNTVRSK	< -0.25
ELNARGDRCAGHVLVI	-0.243
ELNC	< -0.25
ELNVVFDMHRLR	< -0.25

Substance	growth estimate
ELPVSYCGVTLWRGTLAHTA	< -0.25
ELRC	< -0.25
ELRLKS	< -0.25
ELSPDGVTFIEEPPWSAFFD	-0.21
ELTSKHSRCALNKLASRGSR	0.0328
ELTSLADRRRFYLPVTESSP	< -0.25
ELTSVLGEGSNGHASCPSVY	< -0.25
ELWSGCGSRQA	< -0.25
EMDHRSVAAVAGVSPEFWWR	-0.231
EMGNPCCLSKPQKTGPHIRS	< -0.25
EMIVSYEGLVSATLSPVAVY	-0.248
EMRFSCVPNKRACITGN	< -0.25
EMRVEDAVGGGPRWPR	< -0.25
EMTRNR	< -0.25
EMTSVHWSIRSTAKPDALGQ	-0.246
EMVHASVHVVRFLGDWRTLR	< -0.25
ENCGYCPAFLPRTNSLRSTL	< -0.25
ENCPGSRLE	< -0.25

Single entries from the list.
Entry of ELFNIGRVRHSYHVCDAALW under growth estimate: < -0.25
Entry of ELDCHVLELGAEALPCMHGS under growth estimate: < -0.25
Entry of EKVNALLLHMESSA under growth estimate: < -0.25
Entry of EKASGTRVLKSRCIATGDLS under growth estimate: < -0.25
